Test results taken from publication PMC7419509.
No constants are given. Whether binding was seen depends on the method and setting. In cells and extracts the contact can be indirect. Here binding means that the protein was enriched with, or labelled near, the bait; the list need not be complete.

Amino acid sequences for entries named in this document (tags omitted).
UniProt Q6R327: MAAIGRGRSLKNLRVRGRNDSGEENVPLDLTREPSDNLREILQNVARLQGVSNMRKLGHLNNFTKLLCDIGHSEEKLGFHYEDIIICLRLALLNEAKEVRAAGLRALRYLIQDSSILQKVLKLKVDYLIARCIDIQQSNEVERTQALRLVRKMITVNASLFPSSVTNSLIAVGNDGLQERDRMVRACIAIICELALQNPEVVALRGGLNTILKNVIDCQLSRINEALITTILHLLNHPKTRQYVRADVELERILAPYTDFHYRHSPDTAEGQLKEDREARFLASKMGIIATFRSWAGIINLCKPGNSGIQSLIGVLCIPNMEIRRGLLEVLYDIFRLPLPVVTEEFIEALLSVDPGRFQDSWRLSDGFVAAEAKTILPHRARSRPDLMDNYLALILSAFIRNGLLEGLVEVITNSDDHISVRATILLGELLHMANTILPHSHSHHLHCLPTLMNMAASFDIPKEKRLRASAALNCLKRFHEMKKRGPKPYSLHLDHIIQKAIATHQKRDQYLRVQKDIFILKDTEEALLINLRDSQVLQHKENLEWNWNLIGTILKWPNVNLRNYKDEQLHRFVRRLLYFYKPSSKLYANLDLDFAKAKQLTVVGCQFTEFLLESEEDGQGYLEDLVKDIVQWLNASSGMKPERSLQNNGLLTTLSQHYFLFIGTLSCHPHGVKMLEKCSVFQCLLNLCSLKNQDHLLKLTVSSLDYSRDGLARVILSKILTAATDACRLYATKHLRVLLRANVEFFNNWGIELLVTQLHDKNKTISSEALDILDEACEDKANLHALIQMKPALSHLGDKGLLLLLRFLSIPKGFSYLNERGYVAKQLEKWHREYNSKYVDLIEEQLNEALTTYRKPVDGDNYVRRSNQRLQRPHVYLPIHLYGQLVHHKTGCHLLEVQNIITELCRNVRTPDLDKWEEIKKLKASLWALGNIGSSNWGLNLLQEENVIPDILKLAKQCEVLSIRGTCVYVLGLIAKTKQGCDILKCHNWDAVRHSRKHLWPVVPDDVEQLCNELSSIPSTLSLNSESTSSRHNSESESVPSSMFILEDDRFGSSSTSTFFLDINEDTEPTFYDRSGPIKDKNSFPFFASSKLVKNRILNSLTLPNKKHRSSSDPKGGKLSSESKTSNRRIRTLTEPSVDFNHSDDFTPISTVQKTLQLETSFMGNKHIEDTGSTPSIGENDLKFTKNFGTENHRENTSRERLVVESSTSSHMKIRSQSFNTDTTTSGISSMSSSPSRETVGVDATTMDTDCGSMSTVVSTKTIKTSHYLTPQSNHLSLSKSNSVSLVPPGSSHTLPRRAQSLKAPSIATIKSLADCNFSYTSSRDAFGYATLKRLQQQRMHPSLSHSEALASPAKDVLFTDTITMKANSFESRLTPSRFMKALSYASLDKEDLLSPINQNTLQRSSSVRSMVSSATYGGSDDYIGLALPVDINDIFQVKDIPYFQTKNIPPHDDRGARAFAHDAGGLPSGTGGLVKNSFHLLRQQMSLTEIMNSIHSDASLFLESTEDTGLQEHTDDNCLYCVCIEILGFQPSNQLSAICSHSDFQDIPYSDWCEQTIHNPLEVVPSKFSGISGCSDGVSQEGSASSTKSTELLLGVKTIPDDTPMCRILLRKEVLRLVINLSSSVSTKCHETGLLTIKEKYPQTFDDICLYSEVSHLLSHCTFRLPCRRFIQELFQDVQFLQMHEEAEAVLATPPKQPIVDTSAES

Molecular target: RICTOR (human (endogenous in HT1080 and HeLa)) (UniProt Q6R327)
Assay: affinity purification with mass spectrometry; immunoprecipitation with anti-RICTOR antibody, binding proteins analysed by LC-MS/MS

- binding: binds
Substance: TMBIM6 (from UniProt P55061 1-237)
